Drawing on PubChem BioAssay AID248 (DTP/NCI, 2004), this text covers survivor count and T/C for ten molecules.

The assay deals with L1210 leukemia ip in BDF1 mice, survival T/C. Description: NCI In Vivo Anticancer Drug Screen. Data for tumor model L1210 Leukemia (intraperitoneal) in B6D2F1 (BDF1) mice. The following applies: T/C endpoint: mean survival time, higher T/C = longer survival.

The list is a part of this screen's results and no random one: it is rich in T/C values a quarter to a half above the control, in often repeated tests (any T/C) and in doses without a T/C. Other doses and runs of a compound stand elsewhere. T/C is the treated group as % of the vehicle group. Some doses have a count of surviving animals in place of a T/C: the source holds a T/C of zero for them, seemingly a mark for toxic or unscored doses. Some survivor counts are full or nearly so, which does not show that the dose was tolerated: the source hardly ever lists a survival T/C far under the control, and the zero likely stands for such cases as well. Survivors were counted at the toxicity check, usually on the fifth day, unless a day is given; later deaths do not show. Schedules are NCI's codes, read here as Q, the interval in days (D) or hours (H), X, the number of doses. Some entries were tested several times; the results are listed from low to high. Some schedule codes hold Z or #, which are not explained here. For survival time, this PubChem deposit counts one and a half times the control or more as active, and values a quarter to a half above the control carry no call in these data; other NCI protocols may use other cut-offs. Some T/C values are followed by the survivors on the day toxicity was checked, most often the fifth; where none is given, no animal had died by that day.

Take `COc1cc2c(cc1OC)/C(=C(\C#N)CCC(C)=O)NCC2`: the survivor count (dose: 400.0 mg/kg/injection, schedule: Q01DX001 (ip), vehicle: carboxymethylcellulose (CMC)) is reported as 0 of 4.
`COC1=CC(=O)C=CC1=O`: the survivor count by setting is: (dose: 12.0 mg/kg/injection, schedule: Q01DX009 (ip), vehicle: saline) 0 of 6; (dose: 25.0 mg/kg/injection, schedule: Q01DX009 (ip), vehicle: saline) 0 of 6; (dose: 50.0 mg/kg/injection, schedule: Q01DX009 (ip), vehicle: saline) 0 of 6; (dose: 100.0 mg/kg/injection, schedule: Q01DX009 (ip), vehicle: saline) 0 of 6; (dose: 200.0 mg/kg/injection, schedule: Q01DX009 (ip), vehicle: saline) 0 of 6; (dose: 400.0 mg/kg/injection, schedule: Q01DX009 (ip), vehicle: saline) 0 of 6.
In the case of `FC(F)(F)S.[Ag]`, the survivor count (dose: 300.0 mg/kg/injection, schedule: Q01DX001 (ip), vehicle: saline) is 2 of 6.
Take `Cc1ccc(C(O)c2ccccc2)cc1` (stereo unspecified): for the setting “dose: 400.0 mg/kg/injection, schedule: Q01DX009 (ip), vehicle: saline with Tween-80”, the survivor count is 3 of 6.
On to `CC1CC[N-]CC1.CC1CC[N-]CC1.CC1CC[N-]CC1.CC1CC[N-]CC1.O=C([O-])C(=O)[O-].O=C([O-])C(=O)[O-].[Nb+5].[O-][O-].[O-][O-].[Pt+4]`, for which the survivor count is, setting by setting: (dose: 6.25 mg/kg/injection, schedule: Q04DX003 (ip), vehicle: saline) 1 of 6; (dose: 12.5 mg/kg/injection, schedule: Q04DX003 (ip), vehicle: saline) 0 of 6; (dose: 25.0 mg/kg/injection, schedule: Q04DX003 (ip), vehicle: saline) 0 of 6; (dose: 50.0 mg/kg/injection, schedule: Q04DX003 (ip), vehicle: saline) 0 of 6; (dose: 100.0 mg/kg/injection, schedule: Q04DX003 (ip), vehicle: saline) 1 of 6; (dose: 200.0 mg/kg/injection, schedule: Q04DX003 (ip), vehicle: saline) 0 of 6. Moreover, under “dose: 400.0 mg/kg/injection, schedule: Q04DX003 (ip), vehicle: saline”, the survivor count is 1 of 6.
Regarding `O=C(CI)Nc1ccc2oc(=O)c(C(=O)O)cc2c1`, the survivor count reads like this: (dose: 200.0 mg/kg/injection, schedule: Q01DX001 (ip), vehicle: Klucel (hydroxypropylcellulose) (HPC)) 0 of 6; (dose: 400.0 mg/kg/injection, schedule: Q01DX001 (ip), vehicle: Klucel (hydroxypropylcellulose) (HPC)) 0 of 6.
As for `NC(N)=N/N=C(\C=N\N=C(N)N)c1ccc(-c2ccc(C(/C=N/N=C(N)N)=N\N=C(N)N)cc2)cc1`, the survivor count by setting is: (dose: 15.0 mg/kg/injection, schedule: Q01DX Z (ip), vehicle: saline) 1 of 6; (dose: 30.0 mg/kg/injection, schedule: Q01DX Z (ip), vehicle: saline) 0 of 6; (dose: 60.0 mg/kg/injection, schedule: Q01DX Z (ip), vehicle: saline) 0 of 6; (dose: 120.0 mg/kg/injection, schedule: Q01DX Z (ip), vehicle: saline) 0 of 6.
As for `CC(C)CC(NC(=O)OCc1ccccc1)C(=O)NC(Cc1ccccc1)C(=O)CCl` (stereo unspecified), the survivor count is on record as 5 of 6 (dose: 200.0 mg/kg/injection, schedule: Q04DX003 (ip), vehicle: Klucel (hydroxypropylcellulose) (HPC)) and 4 of 6 (dose: 400.0 mg/kg/injection, schedule: Q04DX003 (ip), vehicle: Klucel (hydroxypropylcellulose) (HPC)).
In the case of `O=C(Nc1ccc(C2=NCCCN2)cc1)c1ccc(NC(=O)c2ccc(C3=NCCCN3)cc2)cc1`, the T/C is, setting by setting: (dose: 1.0 mg/kg/injection, schedule: Q01DX Z (ip), vehicle: carboxymethylcellulose (CMC)) 127 % of control; (dose: 1.88 mg/kg/injection, schedule: Q01DX Z (ip), vehicle: saline) 143 % of control; (dose: 2.0 mg/kg/injection, schedule: Q01DX010 (ip), vehicle: other) 145 % of control; (dose: 2.0 mg/kg/injection, schedule: Q01DX Z (sc), vehicle: saline) 141 % of control; (dose: 10.0 mg/kg/injection, schedule: Q01DX001 (im), vehicle: steroid suspending solution) 135 % of control; (dose: 14.0 mg/kg/injection, schedule: Q01DX001 (ip), vehicle: carboxymethylcellulose (CMC)) 141 % of control. In addition, the T/C by setting is: (dose: 14.0 mg/kg/injection, schedule: Q01DX001 (ip), vehicle: saline) 134 and 135 % of control; (dose: 21.0 mg/kg/injection, schedule: Q01DX001 (ip), vehicle: other) 149 % of control; (dose: 32.0 mg/kg/injection, schedule: Q01DX001 (ip), vehicle: saline) 146 % of control; (dose: 300.0 mg/kg/injection, schedule: Q#A X Z (oral), vehicle: carboxymethylcellulose (CMC)) 137 % of control; (dose: 303.5 mg/kg/injection, schedule: Q#A X Z (oral), vehicle: carboxymethylcellulose (CMC)) 127 % of control; (dose: 450.0 mg/kg/injection, schedule: Q#A X Z (oral), vehicle: carboxymethylcellulose (CMC)) 126 % of control. For the same molecule, the T/C (dose: 500.0 mg/kg/injection, schedule: Q01DX Z (oral), vehicle: carboxymethylcellulose (CMC)) was 136 % of control; the T/C (dose: 600.0 mg/kg/injection, schedule: Q01DX Z (oral), vehicle: water) is 131 % of control; the T/C (dose: 900.0 mg/kg/injection, schedule: Q01DX Z (oral), vehicle: water) was 136 % of control; the T/C (dose: 1800.0 mg/kg/injection, schedule: Q03DX Z (oral), vehicle: carboxymethylcellulose (CMC)) is 140 % of control; the T/C (dose: 4000.0 mg/kg/injection, schedule: Q07DX Z (oral), vehicle: carboxymethylcellulose (CMC)) was 130 % of control [5 of 6 alive]. Further, the survivor count is 3 of 6 (dose: 15.0 mg/kg/injection, schedule: Q01DX Z (ip), vehicle: other); 5 of 6 (dose: 20.0 mg/kg/injection, schedule: Q01DX010 (sc), vehicle: olive oil, sesame oil, peanut oil); 0 of 6 (dose: 30.0 mg/kg/injection, schedule: Q01DX Z (ip), vehicle: other); 0 of 6 (dose: 32.0 mg/kg/injection, schedule: Q01DX010 (ip), vehicle: other); 6 of 6 (dose: 32.0 mg/kg/injection, schedule: Q01DX Z (sc), vehicle: carboxymethylcellulose (CMC)); 5 of 10 and 5 of 6 (dose: 40.0 mg/kg/injection, schedule: Q01DX010 (sc), vehicle: olive oil, sesame oil, peanut oil). Moreover, the survivor count is 5 of 6 (dose: 40.0 mg/kg/injection, schedule: Q01DX010 (sc), vehicle: saline); 5 of 10 (dose: 48.0 mg/kg/injection, schedule: Q01DX001 (ip), vehicle: other); 0 of 6 (dose: 60.0 mg/kg/injection, schedule: Q01DX Z (ip), vehicle: other); 1 of 6 (dose: 64.0 mg/kg/injection, schedule: Q01DX Z (sc), vehicle: carboxymethylcellulose (CMC)); 1 of 10 (dose: 72.0 mg/kg/injection, schedule: Q01DX001 (ip), vehicle: carboxymethylcellulose (CMC)); 1 of 10 (dose: 72.0 mg/kg/injection, schedule: Q01DX001 (ip), vehicle: other). Also, the survivor count by setting is: (dose: 80.0 mg/kg/injection, schedule: Q01DX001 (im), vehicle: steroid suspending solution) 3 of 6; (dose: 80.0 mg/kg/injection, schedule: Q01DX010 (sc), vehicle: olive oil, sesame oil, peanut oil) 1 of 6 and 6 of 6; (dose: 80.0 mg/kg/injection, schedule: Q01DX010 (sc), vehicle: saline) 4 of 6; (dose: 80.0 mg/kg/injection, schedule: Q02DX004 (im), vehicle: olive oil, sesame oil, peanut oil) 6 of 6; (dose: 120.0 mg/kg/injection, schedule: Q01DX Z (ip), vehicle: other) 0 of 6; (dose: 128.0 mg/kg/injection, schedule: Q01DX Z (sc), vehicle: carboxymethylcellulose (CMC)) 0 of 6. The survivor count (dose: 607.0 mg/kg/injection, schedule: Q01DX Z (oral), vehicle: carboxymethylcellulose (CMC)) is on record as 3 of 5.
`CCC1=C(c2ccc(OC)cc2)CCC(C(=O)O)C1C` (stereo unspecified): where the note is “dose: 1600.0 mg/kg/injection, schedule: Q01DX Z (ip), vehicle: saline”, the survivor count is 3 of 6.
